In the supplement of paper PMC10849652:
This is one part of the list.

The chains behind the UniProt entries cited, without tags or fusion partners. Where a name states a change or a piece, a line headed by the entry shows the natural chain unless it says otherwise.
UniProt Q0JRZ9: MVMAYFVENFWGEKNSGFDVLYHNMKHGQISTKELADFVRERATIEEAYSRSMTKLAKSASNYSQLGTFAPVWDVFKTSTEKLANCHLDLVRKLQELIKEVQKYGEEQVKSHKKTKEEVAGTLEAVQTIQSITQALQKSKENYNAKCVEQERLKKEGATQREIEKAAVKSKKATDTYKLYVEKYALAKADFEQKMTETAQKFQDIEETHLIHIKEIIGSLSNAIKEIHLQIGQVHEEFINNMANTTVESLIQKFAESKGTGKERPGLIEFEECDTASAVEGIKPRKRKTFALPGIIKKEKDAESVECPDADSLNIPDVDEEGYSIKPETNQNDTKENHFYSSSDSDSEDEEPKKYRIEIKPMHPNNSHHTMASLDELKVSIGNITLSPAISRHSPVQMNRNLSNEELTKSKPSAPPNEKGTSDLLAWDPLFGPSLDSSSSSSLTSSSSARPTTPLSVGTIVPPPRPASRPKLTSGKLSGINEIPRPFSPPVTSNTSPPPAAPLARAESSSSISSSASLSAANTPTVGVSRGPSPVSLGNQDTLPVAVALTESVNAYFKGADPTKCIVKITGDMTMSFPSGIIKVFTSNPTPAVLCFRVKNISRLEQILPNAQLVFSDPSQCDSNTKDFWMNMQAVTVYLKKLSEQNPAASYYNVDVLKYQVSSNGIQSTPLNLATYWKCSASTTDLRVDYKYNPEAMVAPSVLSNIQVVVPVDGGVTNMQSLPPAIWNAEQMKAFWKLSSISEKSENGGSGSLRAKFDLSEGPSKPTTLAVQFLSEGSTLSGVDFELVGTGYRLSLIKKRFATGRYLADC
UniProt Q13045: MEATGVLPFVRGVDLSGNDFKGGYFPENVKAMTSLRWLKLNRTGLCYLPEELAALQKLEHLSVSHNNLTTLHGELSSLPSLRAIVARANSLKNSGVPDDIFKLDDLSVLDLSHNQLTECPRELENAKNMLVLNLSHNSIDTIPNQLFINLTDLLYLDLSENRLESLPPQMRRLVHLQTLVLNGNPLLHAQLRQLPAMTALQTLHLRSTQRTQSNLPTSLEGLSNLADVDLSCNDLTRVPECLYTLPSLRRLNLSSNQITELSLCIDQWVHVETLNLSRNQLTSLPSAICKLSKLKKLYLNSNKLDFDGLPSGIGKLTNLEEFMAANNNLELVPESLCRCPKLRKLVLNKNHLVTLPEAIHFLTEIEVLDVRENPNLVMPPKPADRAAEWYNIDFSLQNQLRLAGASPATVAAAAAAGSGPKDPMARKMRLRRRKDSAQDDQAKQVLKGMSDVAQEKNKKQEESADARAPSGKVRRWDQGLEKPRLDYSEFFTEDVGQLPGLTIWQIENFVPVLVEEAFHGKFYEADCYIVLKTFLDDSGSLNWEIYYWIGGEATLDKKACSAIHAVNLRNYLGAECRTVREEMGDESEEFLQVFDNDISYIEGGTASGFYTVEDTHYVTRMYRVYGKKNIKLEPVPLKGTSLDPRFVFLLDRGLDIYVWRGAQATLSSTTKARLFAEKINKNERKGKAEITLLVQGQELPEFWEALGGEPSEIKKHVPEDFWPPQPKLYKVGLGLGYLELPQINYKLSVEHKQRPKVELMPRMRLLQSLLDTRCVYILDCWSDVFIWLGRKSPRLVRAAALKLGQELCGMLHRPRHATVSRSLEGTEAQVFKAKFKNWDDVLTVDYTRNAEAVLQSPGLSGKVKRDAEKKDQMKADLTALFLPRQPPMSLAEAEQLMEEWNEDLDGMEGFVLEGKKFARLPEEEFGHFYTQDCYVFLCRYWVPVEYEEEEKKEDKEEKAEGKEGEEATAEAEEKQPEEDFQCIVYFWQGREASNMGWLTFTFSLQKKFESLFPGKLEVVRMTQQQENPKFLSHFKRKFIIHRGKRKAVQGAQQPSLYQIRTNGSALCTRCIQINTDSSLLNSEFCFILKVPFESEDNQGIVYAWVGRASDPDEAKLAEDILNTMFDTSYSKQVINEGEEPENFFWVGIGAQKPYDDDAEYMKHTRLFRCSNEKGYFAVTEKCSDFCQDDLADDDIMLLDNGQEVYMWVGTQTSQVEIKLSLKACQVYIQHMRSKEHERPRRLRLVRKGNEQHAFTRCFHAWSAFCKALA
UniProt Q96ND0: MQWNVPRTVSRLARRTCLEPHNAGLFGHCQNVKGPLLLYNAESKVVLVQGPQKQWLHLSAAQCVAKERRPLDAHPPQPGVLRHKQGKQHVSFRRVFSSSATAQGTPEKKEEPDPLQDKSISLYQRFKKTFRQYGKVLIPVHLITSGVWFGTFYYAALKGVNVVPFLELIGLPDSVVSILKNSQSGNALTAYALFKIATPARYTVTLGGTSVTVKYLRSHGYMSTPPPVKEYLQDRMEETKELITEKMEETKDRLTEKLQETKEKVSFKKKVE
UniProt P22087: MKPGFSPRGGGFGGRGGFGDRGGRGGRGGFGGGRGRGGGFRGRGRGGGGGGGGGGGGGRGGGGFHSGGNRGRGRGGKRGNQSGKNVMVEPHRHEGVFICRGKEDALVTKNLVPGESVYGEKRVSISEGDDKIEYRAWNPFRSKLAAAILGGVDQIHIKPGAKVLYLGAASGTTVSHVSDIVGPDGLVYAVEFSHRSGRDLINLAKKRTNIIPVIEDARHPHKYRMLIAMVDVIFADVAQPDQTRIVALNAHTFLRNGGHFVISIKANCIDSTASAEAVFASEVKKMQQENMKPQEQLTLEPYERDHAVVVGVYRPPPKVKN
UniProt Q9UKT5: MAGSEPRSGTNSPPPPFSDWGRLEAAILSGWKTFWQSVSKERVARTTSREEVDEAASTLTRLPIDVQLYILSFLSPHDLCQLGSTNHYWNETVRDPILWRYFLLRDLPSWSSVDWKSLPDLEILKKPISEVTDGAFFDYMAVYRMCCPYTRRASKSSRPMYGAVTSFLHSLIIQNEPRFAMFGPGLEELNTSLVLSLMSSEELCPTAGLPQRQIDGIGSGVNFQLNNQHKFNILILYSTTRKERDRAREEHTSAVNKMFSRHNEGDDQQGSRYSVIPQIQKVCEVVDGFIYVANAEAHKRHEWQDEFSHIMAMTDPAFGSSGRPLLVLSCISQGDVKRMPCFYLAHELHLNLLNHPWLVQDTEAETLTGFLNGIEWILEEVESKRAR
UniProt Q9H479: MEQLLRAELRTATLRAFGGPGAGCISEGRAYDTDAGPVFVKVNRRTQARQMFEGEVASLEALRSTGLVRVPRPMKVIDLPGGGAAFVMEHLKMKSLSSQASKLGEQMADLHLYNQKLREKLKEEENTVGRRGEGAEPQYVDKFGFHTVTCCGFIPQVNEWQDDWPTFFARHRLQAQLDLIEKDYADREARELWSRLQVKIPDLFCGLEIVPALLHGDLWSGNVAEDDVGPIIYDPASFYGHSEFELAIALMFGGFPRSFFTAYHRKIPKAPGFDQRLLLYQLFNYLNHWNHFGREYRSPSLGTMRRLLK
UniProt Q9Y3I1: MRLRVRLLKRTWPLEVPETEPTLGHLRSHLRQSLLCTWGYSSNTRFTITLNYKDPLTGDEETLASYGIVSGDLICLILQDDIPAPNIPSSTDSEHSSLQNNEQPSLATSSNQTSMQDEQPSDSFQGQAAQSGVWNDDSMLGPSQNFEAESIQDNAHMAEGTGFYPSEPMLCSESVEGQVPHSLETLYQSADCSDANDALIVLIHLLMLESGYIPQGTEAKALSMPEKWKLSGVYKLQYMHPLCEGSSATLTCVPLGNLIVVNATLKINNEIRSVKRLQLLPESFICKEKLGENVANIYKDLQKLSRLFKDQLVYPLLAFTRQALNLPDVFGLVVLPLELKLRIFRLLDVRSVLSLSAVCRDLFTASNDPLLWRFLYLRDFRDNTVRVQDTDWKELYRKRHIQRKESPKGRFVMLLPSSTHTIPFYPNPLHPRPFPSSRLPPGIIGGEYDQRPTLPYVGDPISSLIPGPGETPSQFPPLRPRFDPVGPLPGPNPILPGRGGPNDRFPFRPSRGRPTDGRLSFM
UniProt O75369, whole entry, looked up: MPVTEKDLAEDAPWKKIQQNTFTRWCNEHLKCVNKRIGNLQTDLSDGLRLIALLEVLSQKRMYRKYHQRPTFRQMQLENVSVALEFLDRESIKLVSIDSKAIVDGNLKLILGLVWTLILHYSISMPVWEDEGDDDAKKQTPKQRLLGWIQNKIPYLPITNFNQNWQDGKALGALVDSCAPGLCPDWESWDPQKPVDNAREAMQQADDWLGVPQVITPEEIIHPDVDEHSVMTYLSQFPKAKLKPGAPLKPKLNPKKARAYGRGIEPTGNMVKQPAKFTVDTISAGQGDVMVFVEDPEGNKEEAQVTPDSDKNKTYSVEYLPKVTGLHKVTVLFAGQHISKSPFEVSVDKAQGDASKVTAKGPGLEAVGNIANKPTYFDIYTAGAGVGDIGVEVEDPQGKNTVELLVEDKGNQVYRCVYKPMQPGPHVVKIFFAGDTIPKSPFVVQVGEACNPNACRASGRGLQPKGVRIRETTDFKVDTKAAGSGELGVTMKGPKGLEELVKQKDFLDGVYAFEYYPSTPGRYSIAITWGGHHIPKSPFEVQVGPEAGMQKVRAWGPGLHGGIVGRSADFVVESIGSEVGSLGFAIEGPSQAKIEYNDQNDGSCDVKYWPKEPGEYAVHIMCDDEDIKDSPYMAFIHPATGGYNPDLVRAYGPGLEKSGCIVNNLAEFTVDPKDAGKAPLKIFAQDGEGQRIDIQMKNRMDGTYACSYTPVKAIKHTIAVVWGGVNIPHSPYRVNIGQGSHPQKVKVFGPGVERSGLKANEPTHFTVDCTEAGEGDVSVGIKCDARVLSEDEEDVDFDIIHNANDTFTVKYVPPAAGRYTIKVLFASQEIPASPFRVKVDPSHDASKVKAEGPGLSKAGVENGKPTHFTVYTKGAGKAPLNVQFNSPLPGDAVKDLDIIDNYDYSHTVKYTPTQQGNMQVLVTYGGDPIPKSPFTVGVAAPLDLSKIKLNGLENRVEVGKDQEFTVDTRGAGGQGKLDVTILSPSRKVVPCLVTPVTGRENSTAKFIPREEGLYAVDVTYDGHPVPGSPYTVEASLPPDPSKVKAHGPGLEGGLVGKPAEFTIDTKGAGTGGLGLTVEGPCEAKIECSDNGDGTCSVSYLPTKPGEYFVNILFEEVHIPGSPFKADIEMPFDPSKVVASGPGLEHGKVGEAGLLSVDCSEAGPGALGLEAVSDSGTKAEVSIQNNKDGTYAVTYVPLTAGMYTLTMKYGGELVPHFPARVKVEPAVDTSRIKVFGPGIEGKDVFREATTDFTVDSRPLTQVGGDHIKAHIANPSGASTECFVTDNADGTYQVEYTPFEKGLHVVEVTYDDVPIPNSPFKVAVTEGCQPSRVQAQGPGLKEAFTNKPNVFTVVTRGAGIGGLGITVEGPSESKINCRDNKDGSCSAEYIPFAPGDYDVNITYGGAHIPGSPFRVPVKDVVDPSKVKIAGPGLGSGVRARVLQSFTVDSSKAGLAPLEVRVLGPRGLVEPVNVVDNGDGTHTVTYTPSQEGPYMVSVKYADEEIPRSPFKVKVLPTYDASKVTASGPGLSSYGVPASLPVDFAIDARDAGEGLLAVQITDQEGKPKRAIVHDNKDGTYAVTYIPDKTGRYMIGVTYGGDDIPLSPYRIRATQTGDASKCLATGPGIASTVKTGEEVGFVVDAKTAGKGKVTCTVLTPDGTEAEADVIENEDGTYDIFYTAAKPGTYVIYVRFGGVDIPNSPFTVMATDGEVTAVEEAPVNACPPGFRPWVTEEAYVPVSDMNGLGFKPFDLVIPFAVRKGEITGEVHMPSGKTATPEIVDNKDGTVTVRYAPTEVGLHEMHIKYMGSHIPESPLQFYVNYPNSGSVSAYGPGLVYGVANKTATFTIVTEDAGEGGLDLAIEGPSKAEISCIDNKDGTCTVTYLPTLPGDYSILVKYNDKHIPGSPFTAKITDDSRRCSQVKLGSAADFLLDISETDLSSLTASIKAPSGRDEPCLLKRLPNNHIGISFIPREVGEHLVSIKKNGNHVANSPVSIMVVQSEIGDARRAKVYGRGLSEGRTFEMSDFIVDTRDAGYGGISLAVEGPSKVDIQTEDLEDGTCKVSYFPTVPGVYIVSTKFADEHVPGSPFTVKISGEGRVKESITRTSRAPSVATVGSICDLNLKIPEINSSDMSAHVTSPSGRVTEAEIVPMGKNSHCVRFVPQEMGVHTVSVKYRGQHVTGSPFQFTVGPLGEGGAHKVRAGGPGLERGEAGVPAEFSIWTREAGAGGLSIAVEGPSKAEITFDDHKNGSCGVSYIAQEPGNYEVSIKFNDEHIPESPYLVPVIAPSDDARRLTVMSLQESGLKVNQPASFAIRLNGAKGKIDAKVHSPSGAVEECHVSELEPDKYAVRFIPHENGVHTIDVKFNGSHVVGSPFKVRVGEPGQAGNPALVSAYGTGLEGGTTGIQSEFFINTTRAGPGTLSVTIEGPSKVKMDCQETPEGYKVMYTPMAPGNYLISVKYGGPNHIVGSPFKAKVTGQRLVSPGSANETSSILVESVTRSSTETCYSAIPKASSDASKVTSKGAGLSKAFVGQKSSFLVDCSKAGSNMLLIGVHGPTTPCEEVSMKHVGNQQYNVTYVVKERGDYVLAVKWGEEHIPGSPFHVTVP

Experiments:
Test in all cases: log2 fold change, soluble protein after heating vs DMSO (PISA); higher = thermal stabilisation; K562 cells, 10 uM, 30 min; active = over 0.2 and 3.5 SD of the protein, either way, in both replicates (recomputed)
bafetinib = compound: Cc1ccc(NC(=O)c2ccc(CN3CC[C@H](N(C)C)C3)c(C(F)(F)F)c2)cc1Nc1nccc(-c2cncnc2)n1 [bafetinib]
In short: (§1)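 Thermal stability values are relative to control samples and come from duplicates. They are expressed as log2 fold changes. For measurement, K562 cells (2×10^6 cells/mL) received 10 μM compound for 30 min, and aliquots were heated for 3 min over 48°C-58°C, pooled, and extracted at 4°C in PBS with 0.5% NP-40. Soluble protein, the supernatant after 21,000xg for 90 min, was quantified by TMTpro 16plex LC-MS/MS with equalised channel sums.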

[1] = compound: Cc1cccc(CC(=O)N2CCc3c2ccc(-c2cn(C)c4ncnc(N)c24)c3F)n1
In short: as §1

nilotinib = compound: Cc1cn(-c2cc(NC(=O)c3ccc(C)c(Nc4nccc(-c5cccnc5)n4)c3)cc(C(F)(F)F)c2)cn1 [nilotinib]
In short: as §1

[2] = compound: Cc1nc(Nc2n[nH]c3c2CN(C(=O)N[C@H](CN(C)C)c2ccccc2)C3(C)C)c2sccc2n1
In short: as §1

dasatinib = compound: Cc1nc(Nc2ncc(C(=O)Nc3c(C)cccc3Cl)s2)cc(N2CCN(CCO)CC2)n1 [dasatinib]
In short: as §1

[3] = compound: Cc1ncc(-c2ccnc(Nc3ccc(S(C)(=O)=O)cc3)n2)n1C(C)C
In short: as §1

[4] = compound: Cn1cc(-c2ccc3c(c2)CCN3C(=O)Cc2cccc(C(F)(F)F)c2)c2c(N)ncnc21
In short: as §1

[5] = compound: Cn1cc(-c2ccc3nnc(C(F)(F)c4ccc5ncccc5c4)n3n2)cn1
In short: as §1

tipifarnib = compound: Cn1cncc1[C@@](N)(c1ccc(Cl)cc1)c1ccc2c(c1)c(-c1cccc(Cl)c1)cc(=O)n2C [tipifarnib]
In short: as §1

mubritinib = compound: FC(F)(F)c1ccc(/C=C/c2nc(COc3ccc(CCCCn4ccnn4)cc3)co2)cc1 [mubritinib]
In short: as §1

[6] = compound: NC(=O)Nc1cc(-c2cccc(F)c2)sc1C(=O)N[C@H]1CCCNC1
In short: as §1

[7] = compound: NC(=O)c1cnc(N[C@@H]2CCCC[C@@H]2N)nc1Nc1cccc(-n2nccn2)c1
In short: as §1

[8] = compound: NC1(c2ccc(-c3nc4ccn5c(=O)[nH]nc5c4cc3-c3ccccc3)cc2)CCC1
In short: as §1

[9] = compound: NCC(=O)Nc1ccc(-n2nc(C(F)(F)F)cc2-c2ccc3c(ccc4ccccc43)c2)cc1
In short: as §1

entinostat = compound: Nc1ccccc1NC(=O)c1ccc(CNC(=O)OCc2cccnc2)cc1 [entinostat]
In short: as §1

vorinostat = compound: O=C(CCCCCCC(=O)Nc1ccccc1)NO [vorinostat]
In short: as §1

citarinostat = compound: O=C(CCCCCCNC(=O)c1cnc(N(c2ccccc2)c2ccccc2Cl)nc1)NO [citarinostat]
In short: as §1

silmitasertib = compound: O=C(O)c1ccc2c(c1)nc(Nc1cccc(Cl)c1)c1ccncc12 [silmitasertib]
In short: as §1

[10] = compound: O=C1NC(=O)C(c2cnc3ccccn23)=C1c1cn2c3c(cc(F)cc13)CN(C(=O)N1CCCCC1)CC2
In short: as §1

[11] = compound: c1cc(OCCN2CCCCC2)cc(-c2n[nH]c3ccc(-c4nnc[nH]4)cc23)c1
In short: as §1

Measured: log2 fold change

FCHO2 (UniProt Q0JRZ9)
inactive: bafetinib 0.092 | [1] -0.014 | nilotinib 0.214 | [2] -0.118 | dasatinib -0.121 | [3] -0.127 | [4] 0.034 | [5] -0.051 | tipifarnib -0.084 | mubritinib 0.008 | [6] -0.087 | [7] -0.17 | [8] -0.116 | [9] -0.055 | entinostat -0.096 | vorinostat 0.106 | citarinostat 0.016 | silmitasertib -0.205 | [10] 0.081 | [11] -0.058

FASTKD2 (UniProt Q9NYY8)
inactive: bafetinib -0.066 | [1] -0.004 | nilotinib 0.012 | [2] -0.016 | dasatinib -0.097 | [3] -0.009 | [4] 0.041 | [5] 0.027 | tipifarnib -0.013 | mubritinib 0.015 | [6] -0.034 | [7] -0.049 | [8] -0.131 | [9] -0.059 | entinostat 0.017 | vorinostat 0.064 | citarinostat 0.042 | silmitasertib 0.018 | [10] 0.003 | [11] -0.017

FLNC (UniProt Q14315)
inactive: bafetinib -0.024 | [1] 0.018 | nilotinib 0 | [2] -0.012 | dasatinib -0.056 | [3] 0.012 | [4] -0.012 | [5] 0 | tipifarnib -0.053 | mubritinib 0.062 | [6] -0.038 | [7] -0.06 | [8] -0.079 | [9] -0.058 | entinostat 0.015 | vorinostat 0.008 | citarinostat 0.025 | silmitasertib 0.04 | [10] -0.003 | [11] -0.036

FARS2 (UniProt O95363)
inactive: bafetinib -0.058 | [1] 0.064 | nilotinib -0.126 | [2] 0.079 | dasatinib -0.058 | [3] -0.097 | [4] 0.039 | [5] 0.039 | tipifarnib 0.018 | mubritinib -0.168 | [6] -0.006 | [7] 0.003 | [8] -0.222 | [9] 0.012 | entinostat 0.028 | vorinostat 0.073 | citarinostat 0.022 | silmitasertib -0.027 | [10] -0.11 | [11] 0.005

FLII (UniProt Q13045)
inactive: bafetinib -0.031 | [1] 0.01 | nilotinib -0.032 | [2] -0.006 | dasatinib -0.065 | [3] 0.046 | [4] 0.061 | [5] 0.025 | tipifarnib -0.034 | mubritinib 0.045 | [6] -0.033 | [7] -0.072 | [8] -0.086 | [9] -0.019 | entinostat -0.011 | vorinostat 0.017 | citarinostat 0.035 | silmitasertib 0.058 | [10] -0.036 | [11] -0.01

FAM210A (UniProt Q96ND0)
inactive: bafetinib -0.148 | [1] -0.054 | nilotinib 0.006 | [2] 0.022 | dasatinib 0.054 | [3] -0.042 | [4] -0.105 | [5] 0.019 | tipifarnib 0.024 | mubritinib 0.038 | [6] -0.063 | [7] -0.095 | [8] 0.048 | [9] 0.017 | entinostat -0.048 | vorinostat -0.05 | citarinostat 0.025 | silmitasertib -0.042 | [10] -0.023 | [11] -0.069

FBL (UniProt P22087)
inactive: bafetinib 0.29 | [1] -0.039 | nilotinib 0.094 | [2] -0.017 | dasatinib 0.454 | [3] -0.01 | [4] -0.337 | [5] -0.097 | tipifarnib 0.301 | mubritinib -0.241 | [6] 0.095 | [7] 0.165 | [8] 0.455 | [9] 0.067 | entinostat -0.109 | vorinostat 0.005 | citarinostat -0.109 | silmitasertib 0.232 | [10] 0.13 | [11] -0.237

FBXO4 (UniProt Q9UKT5)
inactive: bafetinib -0.033 | [1] 0.066 | nilotinib -0.041 | [2] -0.04 | dasatinib -0.15 | [3] -0.019 | [4] 0.089 | [5] -0.003 | tipifarnib -0.142 | mubritinib 0.113 | [6] 0.039 | [7] -0.043 | [8] -0.137 | [9] -0.045 | entinostat -0.086 | vorinostat -0.017 | citarinostat 0.021 | silmitasertib -0.004 | [10] -0.121 | [11] -0.027

FN3K (UniProt Q9H479)
inactive: bafetinib 0.013 | [1] 0.041 | nilotinib 0.02 | [2] 0.042 | dasatinib 0.046 | [3] -0.009 | [4] 0.011 | [5] 0.018 | tipifarnib -0.038 | mubritinib 0.024 | [6] 0.139 | [7] 0.003 | [8] 0.022 | [9] 0.02 | entinostat 0.02 | vorinostat -0.01 | citarinostat 0.008 | silmitasertib -0.026 | [10] -0.046 | [11] 0.028

FERMT3 (UniProt Q86UX7)
inactive: bafetinib -0.022 | [1] 0.029 | nilotinib -0.036 | [2] -0.053 | dasatinib -0.075 | [3] -0.015 | [4] 0.029 | [5] -0.019 | tipifarnib -0.087 | mubritinib 0.051 | [6] -0.055 | [7] -0.107 | [8] -0.106 | [9] -0.065 | entinostat 0.032 | vorinostat 0.026 | citarinostat 0.067 | silmitasertib -0.001 | [10] -0.048 | [11] -0.02

Looked up one by one from the list above, 2 records:
FBL (UniProt P22087)
inactive: bafetinib 0.29 | [1] -0.039 | nilotinib 0.094 | [2] -0.017 | dasatinib 0.454 | [3] -0.01 | [4] -0.337 | [5] -0.097 | tipifarnib 0.301 | mubritinib -0.241 | [6] 0.095 | [7] 0.165 | [8] 0.455 | [9] 0.067 | entinostat -0.109 | vorinostat 0.005 | citarinostat -0.109 | silmitasertib 0.232 | [10] 0.13 | [11] -0.237

FN3K (UniProt Q9H479)
inactive: bafetinib 0.013 | [1] 0.041 | nilotinib 0.02 | [2] 0.042 | dasatinib 0.046 | [3] -0.009 | [4] 0.011 | [5] 0.018 | tipifarnib -0.038 | mubritinib 0.024 | [6] 0.139 | [7] 0.003 | [8] 0.022 | [9] 0.02 | entinostat 0.02 | vorinostat -0.01 | citarinostat 0.008 | silmitasertib -0.026 | [10] -0.046 | [11] 0.028

Next part.

FASN (UniProt P49327)
inactive: bafetinib 0.033 | [1] 0.023 | nilotinib -0.01 | [2] 0.036 | dasatinib -0.056 | [3] -0.007 | [4] 0.021 | [5] -0.004 | tipifarnib -0.069 | mubritinib 0.087 | [6] 0.002 | [7] -0.051 | [8] -0.106 | [9] -0.022 | entinostat -0.01 | vorinostat 0.011 | citarinostat 0.052 | silmitasertib 0 | [10] -0.037 | [11] -0.009

FCSK isoform 2 (UniProt Q8N0W3)
inactive: bafetinib -0.102 | [1] -0.051 | nilotinib 0.072 | [2] -0.019 | dasatinib 0.001 | [3] -0.013 | [4] 0.025 | [5] 0.019 | tipifarnib -0.084 | mubritinib 0.059 | [6] 0.028 | [7] 0.048 | [8] -0.052 | [9] 0.032 | entinostat 0.001 | vorinostat -0.009 | citarinostat 0.02 | silmitasertib -0.031 | [10] -0.063 | [11] 0.013

FBXO7 (UniProt Q9Y3I1)
inactive: bafetinib -0.026 | [1] -0.006 | nilotinib 0.003 | [2] 0.059 | dasatinib -0.102 | [3] 0 | [4] 0.065 | [5] -0.002 | tipifarnib 0.072 | mubritinib 0.07 | [6] 0.061 | [7] -0.052 | [8] -0.077 | [9] -0.044 | entinostat 0.038 | vorinostat 0.097 | citarinostat 0.013 | silmitasertib 0.031 | [10] -0.026 | [11] -0.052

FKBP14 (UniProt Q9NWM8)
inactive: bafetinib -0.021 | [1] 0.005 | nilotinib -0.039 | [2] 0.122 | dasatinib -0.055 | [3] -0.024 | [4] 0.009 | [5] 0.056 | tipifarnib -0.13 | mubritinib -0.055 | [6] 0.043 | [7] -0.041 | [8] -0.014 | [9] 0.007 | entinostat 0.003 | vorinostat -0.045 | citarinostat -0.021 | silmitasertib -0.003 | [10] -0.115 | [11] -0.014

FLNB isoform 8 (UniProt O75369)
inactive: bafetinib -0.025 | [1] 0.003 | nilotinib 0.004 | [2] -0.033 | dasatinib -0.069 | [3] 0.001 | [4] -0.008 | [5] -0.005 | tipifarnib -0.031 | mubritinib 0.091 | [6] -0.043 | [7] -0.049 | [8] -0.058 | [9] -0.039 | entinostat 0.014 | vorinostat 0.012 | citarinostat 0.01 | silmitasertib 0.036 | [10] -0.032 | [11] -0.024

FBXL18 isoform 4 (UniProt Q96ME1)
inactive: bafetinib -0.03 | [1] 0.077 | nilotinib -0.047 | [2] -0.012 | dasatinib -0.049 | [3] -0.022 | [4] 0.031 | [5] 0.008 | tipifarnib -0.067 | mubritinib 0.095 | [6] -0.039 | [7] -0.022 | [8] -0.104 | [9] -0.012 | entinostat 0.004 | vorinostat 0.079 | citarinostat 0.021 | silmitasertib 0.001 | [10] -0.074 | [11] -0.028
